Assay results published in US8202686B2, “Enzyme assays for a droplet actuator” (Advanced Liquid Logic, Inc., priority 2007, dated 2012).
For at least one compound, name, drawing or mass did not settle the structure.

Experiments:
α-glucosidase [1] = assay: Bench assay of α-glucosidase activity for detecting Pompe disease (On-bench); format: biochemical; settings: for fluorescence, Blood + Substrate + Inhibitor: about 5.9 μM acarbose, dried blood spot extract, about 18 hours at about 25° C., 360 Ex/460 Em
α-glucosidase [2] = assay: MUG assay of α-glucosidase activity (off-actuator incubation, on-actuator detection); format: biochemical; settings: about 21.5 hours at about 25° C., detection on droplet actuator

C[C@H]1O[C@H](O[C@H]2[C@H](O)[C@@H](O)[C@@H](O[C@H]3[C@H](O)[C@@H](O)C(O)O[C@@H]3CO)O[C@@H]2CO)[C@H](O)[C@@H](O)[C@@H]1N[C@H]1C=C(CO)[C@@H](O)[C@H](O)[C@H]1O (some centres unmarked) [acarbose]
signal in the presence of the inhibitor (α-glucosidase [1]; compared with blood + substrate without inhibitor): decreased | fluorescence, Blood + Substrate + Inhibitor (α-glucosidase [1]; pH 3.8): 10898 | fluorescence, Blood + Substrate + Inhibitor (α-glucosidase [1]; pH 7.0): 4382 | fluorescence, Blood + MUG + Inhibitor (α-glucosidase [2]; pH 3.8): 68.8 RFU | fluorescence, Blood + MUG + Inhibitor (α-glucosidase [2]; pH 7.0): 59.8 RFU
